Experimental data: patent publication US7365239
Results are given in words; binding and its absence hold for the method and conditions named. For some of these results: In cells and extracts the contact can be indirect. Some results given as binding are weak or reduced against the parent protein; the word gives no strength.

The chains behind the UniProt entries cited, without tags or fusion partners. Where a name states a change or a piece, a line headed by the entry shows the natural chain unless it says otherwise.
UniProt P04386: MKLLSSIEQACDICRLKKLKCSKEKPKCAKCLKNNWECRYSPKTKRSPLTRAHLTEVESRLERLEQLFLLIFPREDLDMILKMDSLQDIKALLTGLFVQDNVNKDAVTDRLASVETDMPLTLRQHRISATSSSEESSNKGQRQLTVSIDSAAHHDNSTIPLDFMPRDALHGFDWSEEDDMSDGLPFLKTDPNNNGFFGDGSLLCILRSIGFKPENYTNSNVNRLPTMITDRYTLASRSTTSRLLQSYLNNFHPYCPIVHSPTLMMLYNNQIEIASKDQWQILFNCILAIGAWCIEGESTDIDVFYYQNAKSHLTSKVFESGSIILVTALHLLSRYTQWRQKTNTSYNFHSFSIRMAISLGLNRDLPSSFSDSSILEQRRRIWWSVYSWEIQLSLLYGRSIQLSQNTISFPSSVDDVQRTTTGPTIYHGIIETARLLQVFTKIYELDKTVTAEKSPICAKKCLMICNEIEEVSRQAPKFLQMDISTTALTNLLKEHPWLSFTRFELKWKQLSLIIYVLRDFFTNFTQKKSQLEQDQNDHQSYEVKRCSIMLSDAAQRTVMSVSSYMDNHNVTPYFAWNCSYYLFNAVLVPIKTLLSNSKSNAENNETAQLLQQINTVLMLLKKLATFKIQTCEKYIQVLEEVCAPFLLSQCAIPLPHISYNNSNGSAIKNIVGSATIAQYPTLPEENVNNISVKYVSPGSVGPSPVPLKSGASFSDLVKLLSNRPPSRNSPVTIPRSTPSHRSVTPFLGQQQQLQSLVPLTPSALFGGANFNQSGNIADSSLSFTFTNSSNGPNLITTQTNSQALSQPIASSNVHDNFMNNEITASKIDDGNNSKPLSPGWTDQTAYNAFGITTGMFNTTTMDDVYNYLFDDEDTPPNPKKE
UniProt Q9JM13: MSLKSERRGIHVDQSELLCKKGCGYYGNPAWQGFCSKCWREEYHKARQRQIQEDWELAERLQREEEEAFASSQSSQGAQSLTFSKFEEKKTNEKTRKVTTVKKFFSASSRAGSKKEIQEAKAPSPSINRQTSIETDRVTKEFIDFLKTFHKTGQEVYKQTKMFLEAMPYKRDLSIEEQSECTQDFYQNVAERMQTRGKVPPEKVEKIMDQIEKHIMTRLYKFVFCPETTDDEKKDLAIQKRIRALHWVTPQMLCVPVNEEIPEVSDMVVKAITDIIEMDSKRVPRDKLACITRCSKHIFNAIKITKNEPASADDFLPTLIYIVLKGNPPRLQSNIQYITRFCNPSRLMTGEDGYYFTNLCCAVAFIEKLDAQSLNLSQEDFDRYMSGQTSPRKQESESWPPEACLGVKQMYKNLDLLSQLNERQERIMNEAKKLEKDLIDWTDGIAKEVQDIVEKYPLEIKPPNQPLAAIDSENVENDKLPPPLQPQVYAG
UniProt Q13153: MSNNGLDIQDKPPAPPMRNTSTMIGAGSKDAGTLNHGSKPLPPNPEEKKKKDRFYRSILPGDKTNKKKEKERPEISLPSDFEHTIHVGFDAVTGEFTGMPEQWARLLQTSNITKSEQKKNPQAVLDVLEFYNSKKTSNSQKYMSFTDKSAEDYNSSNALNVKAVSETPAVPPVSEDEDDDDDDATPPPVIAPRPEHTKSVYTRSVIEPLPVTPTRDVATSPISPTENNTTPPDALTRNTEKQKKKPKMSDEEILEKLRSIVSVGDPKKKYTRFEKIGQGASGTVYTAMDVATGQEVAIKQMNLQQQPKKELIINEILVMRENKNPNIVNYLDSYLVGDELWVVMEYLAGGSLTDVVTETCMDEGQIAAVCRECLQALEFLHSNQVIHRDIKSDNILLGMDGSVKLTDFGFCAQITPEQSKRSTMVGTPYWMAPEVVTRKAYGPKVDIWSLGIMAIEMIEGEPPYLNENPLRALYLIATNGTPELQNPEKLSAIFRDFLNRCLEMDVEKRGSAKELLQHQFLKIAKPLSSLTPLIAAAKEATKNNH

Assays:
[1] = target: T1, wild-type mouse H-Ras expressed as DNA-binding fusion protein (mouse) (UniProt P04386+Q61411); test: yeast two-hybrid, beta-galactosidase assay
[2] = target: active Cdc42 (Cdc42-GTP) from lysates of mouse BMCMCs (mouse) (UniProt P60766); test: GST pull-down from cell lysate, Western blot with anti-Cdc42
[3] = target: T1, wild-type mouse H-Ras expressed as DNA-binding fusion protein (mouse); test: summary sentence of the example (yeast two-hybrid and pull-down)

binding [1]	binding [2]	binding [3]	Substance
binds			C-terminal region of mouse RabGEF1 expressed as GAL-4 activation domain fusion protein (from UniProt Q9JM13 381-491)
	binds		GST-fusion protein containing the p21-binding domain (PBD) of human Pak1 (from UniProt Q13153 67-150)
binds		binds	full-length mouse RabGEF1 expressed as GAL-4 activation domain fusion protein (from UniProt Q9JM13 1-491)
